Test results reported in patent US7220576B2, “Methods and compositions for protein expression and purification” (Lifesensors, Inc., priority 2002, dated 2007).

Assays:
yeast = test: Expression and cleavage of UBL-GFP / SUMO-X-GFP fusions in yeast (Western blot); type: cell-based, S. cerevisiae; settings: for Cleavage of fusion by endogenous hydrolases in yeast: yeast BJ1991, copper induction
Hi-Five insect cells = test: Expression, secretion and cleavage of SUMO/ubiquitin GFP fusions in insect cells (Western blot); type: cell-based

Substance | Detection of unfused GFP by Western blot (yeast; yeast, 20 ug protein loaded) | Cleavage of fusion by endogenous hydrolases in yeast (yeast) | Cleavage of fusion by endogenous hydrolases in yeast (yeast; listed as SUMO) | Cleavage by endogenous SUMO hydrolases in insect cells (Hi-Five insect cells; Hi-Five cells) | Enhancement of protein expression compared to GFP (Hi-Five insect cells; insect cells, Met as N-termini) | Secretion compared to GFP (Hi-Five insect cells; insect cells, media)
GFP [reference compound] | not detectable. |  |  |  |  | 
SUMO-GFP: SUMO fused to N-terminus of GFP (SEQ ID NO: 5) |  | efficiently cleaved | fusions were processed and GFP | efficiently cleaved | 10 fold compared to GFP | At least 50 fold compared to GFP
